Record: PubChem BioAssay AID504744 (Drosophila RNAi Screening Center, 2011)

- Test: 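Identify dsRNAs that increase or decrease phospho-dAkt after insulin treatment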 (primary screen)
- Cells: Drosophila Kc167 cells
- Knock-down reagent: long dsRNA against Drosophila genes, 250 ng dsRNA per well of a 384-well plate
- Timing: 3 days of knock-down, then overnight serum-free starvation before stimulation
- Conditions: bovine insulin at 387 nM for 10 minutes after 12 h without serum
- Detection: 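Per-well phospho-dAkt level from an in-cell fluorescent antibody stain, divided by a DNA-dye signal; log2 residuals turned into z-scores that take cell number into account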
- Hit rule: 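Under insulin, a gene counts as a hit if the average z-score of two replicates lies above 2.5 or below -2.5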
The screen tested about 23,000 reagents; shown is an unselected part of those with a known target gene and a result. Of all reagents, 98 (0.43%) got an active call. 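Only hit calls are given; the phospho-dAkt signals, z-scores and hit direction were not deposited.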 A plus sign joins genes that one reagent is predicted to hit.

Which result is listed for Spn85F [DRSC14545]?
Outcome: inactive

With CG3655 [DRSC17676], what was measured?
Outcome: inactive

With CG3655 [DRSC18181], what was measured?
Outcome: inactive

How did the screen score CG3655 [DRSC18477]?
Outcome: inactive

With CG3655 [DRSC22688], what does the deposit list?
Outcome: inactive

With TM9SF4 [DRSC01888], what does the deposit list?
Outcome: inactive

Which result is listed for TM9SF4 [DRSC02537]?
Outcome: inactive

What is on record for CG15155 [DRSC02456]?
Outcome: inactive

Which result is listed for yip7 [DRSC11410]?
Outcome: inactive

What did the screen give for CG31922 [DRSC21703]?
Outcome: inactive

With CG10752 [DRSC09799], what does the deposit list?
Outcome: inactive

Which result is listed for Nt5a [DRSC08561]?
Outcome: inactive

What is on record for sotv + CG10731 [DRSC05930]?
Outcome: inactive

With sotv + CG10731 [DRSC05997], what was measured?
Outcome: inactive

Which result is listed for Claspin [DRSC08308]?
Outcome: inactive

How did the screen score rumi [DRSC15177]?
Outcome: inactive

With CG32202 [DRSC09989], what does the deposit list?
Outcome: inactive

Which result is listed for Cyp9f3 [DRSC16636]?
Outcome: inactive

For Tnpo-SR [DRSC00546], what does the deposit list?
Outcome: inactive

For UBL3 [DRSC20298], what does the deposit list?
Outcome: inactive

With CG5895 [DRSC10554], how do the results read?
Outcome: inactive

How did the screen score CG33253 [DRSC19547]?
Outcome: inactive

How did the screen score CG33253 [DRSC20053]?
Outcome: inactive

What did the screen give for comm [DRSC11336]?
Outcome: inactive

What is on record for CG13216 [DRSC06338]?
Outcome: inactive

Which result is listed for Mtl [DRSC16751]?
Outcome: inactive

For ScsbetaG [DRSC11294], what does the deposit list?
Outcome: inactive

With vanin-like [DRSC17440], what was measured?
Outcome: inactive

Which result is listed for CG17780 [DRSC15265]?
Outcome: inactive

What did the screen give for ppk10 [DRSC01123]?
Outcome: inactive

Which result is listed for Acsx3 [DRSC14309]?
Outcome: inactive

How did the screen score CG34342 [DRSC09756]?
Outcome: inactive

What did the screen give for CG34342 [DRSC22515]?
Outcome: inactive

For CG13842 [DRSC14692], what was measured?
Outcome: inactive

With CG42568 + DnaJ-60 [DRSC04207], what was measured?
Outcome: inactive

What is on record for CG42568 + DnaJ-60 [DRSC04611]?
Outcome: inactive

For CG3663 [DRSC04402], how do the results read?
Outcome: inactive

Which result is listed for CG4669 [DRSC10440]?
Outcome: inactive

With CG6650 [DRSC10685], what was measured?
Outcome: inactive

For Osi2 [DRSC12174], what was measured?
Outcome: inactive

With Alg-2 [DRSC07799], what does the deposit list?
Outcome: inactive

With Nup43 [DRSC16279], what does the deposit list?
Outcome: inactive

Which result is listed for Zmynd8 [DRSC15310]?
Outcome: inactive

Which result is listed for Hmgs [DRSC06866]?
Outcome: inactive

What did the screen give for CG2267 [DRSC15435]?
Outcome: inactive

8 entries from above, set out differently:
predicted target | DRSC id | Outcome
Acsx3 | DRSC14309 | inactive
CG34342 | DRSC09756 | inactive
CG34342 | DRSC22515 | inactive
CG13842 | DRSC14692 | inactive
CG42568 + DnaJ-60 | DRSC04207 | inactive
CG42568 + DnaJ-60 | DRSC04611 | inactive
CG3663 | DRSC04402 | inactive
CG4669 | DRSC10440 | inactive

The listing continues:
Which result is listed for Or59b [DRSC04632]?
Outcome: inactive

Which result is listed for MFS9 [DRSC15560]?
Outcome: inactive

With PGRP-SA [DRSC19420], what does the deposit list?
Outcome: inactive

With FMRFaR [DRSC08555], how do the results read?
Outcome: inactive

With HemK2 + Snapin [DRSC00736], what was measured?
Outcome: inactive

Which result is listed for HemK2 + Snapin [DRSC00737]?
Outcome: inactive

Which result is listed for eIF4H1 [DRSC20276]?
Outcome: inactive

Which result is listed for CG8925 [DRSC16455]?
Outcome: inactive

With CG8925 [DRSC16456], how do the results read?
Outcome: inactive

For CG8925 [DRSC16457], what was measured?
Outcome: inactive

What did the screen give for CR31541 (retired record) [DRSC21876]?
Outcome: inactive

For rho-5 [DRSC02847], how do the results read?
Outcome: inactive

What is on record for CG3746 [DRSC04412]?
Outcome: inactive

How did the screen score Ice1 [DRSC04191]?
Outcome: inactive

What is on record for CG31775 + CG42586 [DRSC22289]?
Outcome: inactive

With CG42365 [DRSC04266], what was measured?
Outcome: inactive

What is on record for Leash [DRSC15617]?
Outcome: inactive

How did the screen score CG31717 [DRSC01121]?
Outcome: inactive

How did the screen score CG10920 [DRSC17765]?
Outcome: inactive

With CG14301 [DRSC14780], how do the results read?
Outcome: inactive

With olf413 [DRSC11543], what does the deposit list?
Outcome: inactive

With olf413 [DRSC11679], what was measured?
Outcome: inactive

With olf413 [DRSC11721], what was measured?
Outcome: inactive

With olf413 [DRSC11833], what does the deposit list?
Outcome: inactive

With disco [DRSC20323], how do the results read?
Outcome: inactive

What did the screen give for CG33460 [DRSC05570]?
Outcome: inactive

What did the screen give for CG9706 [DRSC11095]?
Outcome: inactive

What is on record for CG31807 [DRSC01550]?
Outcome: inactive
